PubChem BioAssay AID686937 – Drosophila RNAi Screening Center | 2013
Aim: 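Knock-downs that reduce output of a secreted reporter enzyme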 (primary screen). System: Drosophila S2 cells expressing secreted horseradish peroxidase. Reagents: long dsRNA against Drosophila genes. Timing: about 5.5 days (5 days dsRNA, then 12 h reporter induction). Conditions: reporter expression induced after 5 days of dsRNA, read 12 h later; inducer not stated. Measured: 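Chemiluminescent measurement of peroxidase in the medium 12 h after reporter induction, following 5 days of dsRNA, given as a z-score per plate; higher means more secretion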. Reading the numbers: z-score: higher = more reporter secreted into medium.
The screen tested about 23,000 reagents; this is an unselected part of those with a known target gene and a result. 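Reduced-secretion tags in replicate 1 do not always agree with the z-scores; no criterion for assigning the tags was given.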 Reagents against one gene are numbered here. A plus sign joins genes that one reagent is predicted to hit. Reagent sequences are not shown. Not stated in the record: the amount of reagent.

no.	Gene	reagent no.	z-score, replicate 1	z-score, replicate 2	z-score, replicate 3	z-score, replicate 4	phenotype, replicate 1
1	flap	1	0.06	0.06			
2	flap	2	0.19	0.05			
3	Tk	1	0.61	-0.09	0.15	-0.05	
4	Tk	2	0.51	0.16			
5	CG8461	1	0.18	0.54			
6	CG17321	1	0.44	0.2			
7	intr	1	-0.06	0.39			
8	Zip88E	1	0.47	0.44			
9	CG43190	1	0.01	0.36			
10	Oamb	1	-0.06	-0.13			
11	Oamb	2	0	-0.21			
12	Oamb	3	0.22	0.52			
13	Srpk79D	1	0.56	0.17			
14	Srpk79D	2	0.3	0.29			
15	Or22a	1	-0.13	-0.75			
16	FucTB	1	0.26	0.32			
17	CG43394	1	-0.47	0.3			
18	CG43394	2	1.13	0.61			
19	Lsm11	1	0.07	0.12			
20	Tsp42El	1	0.31	0.39			
21	dlt	1	0.2	-0.03			
22	Ance-2	1	0.11	0.23			
23	CG7492	1	0.6	0.38			
24	CG11905	1	0.42	0.48			
25	Peritrophin-A	1	0.3	0.32			
26	CG13044	1	-0.02	0.38			
27	tup	1	0.1	0.25			
28	Mur82C	1	-1.93	-1.55			reduced secretion
29	Mur82C	2	0.26	0.47	0.25	-0.03	
30	CG42262 (retired record)	1	0.15	-0.28			
31	CG42262 (retired record)	2	0.34	0.27			
32	CG42758	1	0.28	0.21			
33	amd	1	0.47	0.48	-0.4	-0.1	
34	amd	2	0.2	0.21			
35	CG13545	1	0.12	0.22			
36	pcx	1	0.1	-0.41			
37	pcx	2	-0.33	-0.53			
38	pcx	3	-0.57	-0.75			
39	pcx	4	-0.1	-0.32			
40	pcx	5	-0.15	-0.35			
41	pcx	6	0.18	0.1			
42	CG30324	1	0.31	0.04			
43	PGRP-LD + Pmi	1	0.24	0.58			
44	PGRP-LD + Pmi	2	0.26	0.17	-0.15	0.12	
45	fray	1	-0.35	-0.62			
46	CG42857	1	0.53	0.5			
47	hoe2	1	0.16	0.3			
48	CG18180	1	0.05	0.05			

9 entries from above, set out differently:
CG11905
- z-score, replicate 1: 0.42
- z-score, replicate 2: 0.48

Peritrophin-A
- z-score, replicate 1: 0.3
- z-score, replicate 2: 0.32

CG13044
- z-score, replicate 1: -0.02
- z-score, replicate 2: 0.38

tup
- z-score, replicate 1: 0.1
- z-score, replicate 2: 0.25

Mur82C #1
- z-score, replicate 1: -1.93
- z-score, replicate 2: -1.55
- phenotype, replicate 1: reduced secretion

Mur82C #2
- z-score, replicate 1: 0.26
- z-score, replicate 2: 0.47
- z-score, replicate 3: 0.25
- z-score, replicate 4: -0.03

CG42262 (retired record) #1
- z-score, replicate 1: 0.15
- z-score, replicate 2: -0.28

CG42262 (retired record) #2
- z-score, replicate 1: 0.34
- z-score, replicate 2: 0.27

CG42758
- z-score, replicate 1: 0.28
- z-score, replicate 2: 0.21

The results go on.
no.	Gene	reagent no.	z-score, replicate 1	z-score, replicate 2	z-score, replicate 3	z-score, replicate 4	phenotype, replicate 1
49	cyr	1	0.23	0.63			
50	cyr	2	0.28	0.73			
51	cyr	3	0.34	0.65			
52	Trs20	1	-2.04	-0.89			reduced secretion
53	CG33124	1	0.12	0.32			
54	dsd	1	0.22	-0.89			
55	dsd	2	-0.02	0.21			
56	CG40948 (retired record)	1	0.25	0.7			
57	fmt	1	0.13	0.19			
58	CG15446	1	0.17	0.02			
59	Glt	1	0.24	0.39			
60	Nadk1b	1	0.57	0.07			
61	Nadk1b	2	0.35	0.12			
62	Nadk1b	3	0.18	0.22			
63	CG32762	1	0.32	0.52	0.43	0.31	
64	Moca-cyp	1	0.41	0.49			
65	Csgalnact	1	0.2	0.02			
66	CG2818	1	0.35	0.47			
67	CG16734	1	-0.31	-0.03			
68	CG12825	1	0.39	0.36	0.7	0.22	
69	emei	1	0.28	0.65	0.54	0.25	
70	emei	2	-1.54	-0.71			reduced secretion
71	CG6674	1	0.47	0.25			
72	NtR	1	0.2	0.25			
73	CG42788	1	0.31	0.46			
74	CG42788	2	0.34	0.09			
75	CG42788	3	0.47	0.43			
76	dmrt99B	1	-2.14	-2.52			reduced secretion
77	not	1	0.34	0.32			
78	Ddx56	1	-1.6	0.02			
79	Polr3G	1	0.28	-0.35			
80	Srrm1	1	0.14	0.08			
81	Nost	1	-0.95	-1.02			
82	Nost	2	0.03	-0.24			
